# Earlier results, collected in patent US20140378500A1, “METHODS FOR PREDICTING TUMOR REPONSE TO TARGETED THERAPIES” (20/20 Gene Systems, Inc., priority 2012, published 2014).
# At least one compound was matched to its structure with a doubt left.
# Test system: kidney cancer
# Settings: drugs that target the VEGF pathway; cited from earlier work
structure (smiles),measurement,value
"CCN(CC)CCNC(=O)c1c(C)[nH]c(/C=C2\C(=O)Nc3ccc(F)cc32)c1C [SUTENT, Sunitinib]",kidney cancer patients who respond,< 30%
